The text below walks through data of publication PMC13439184.

No constants are given. Whether binding was seen depends on the method and setting. Binding seen in cells or lysates may run through a third protein. Here binding means that the protein was enriched with, or labelled near, the bait; the list need not be complete.

This test has as its target ARK1-3xHA (Aurora-related kinase 1, endogenously tagged) (Plasmodium berghei). In words: affinity purification with mass spectrometry; anti-HA immunoprecipitation of ARK1-3xHA from activated male-only fd1- gametocytes after incremental formaldehyde cross-linking (0.1% or 1% for 10 min at room temperature, quenched with glycine).

B1: CDPK4 (enzyme, UniProt P62345 1-528)
chain: MGQEMSTQSDMQNENQKGNKRNLKGSQGKNGLKERSTSISKEIVKNSFNNSKLRPGMFIQNSNVVFNEQYKGIKILGKGSFGEVILSKDKHTGHEYAIKVISKKHVKRKTDKQSLLREVELLKMLDHINIMKLYEFFEDNNYYYLVSDVYSGGELFDEIISRKRFYEVDAARIIKQVLSGITYMHKNNVVHRDLKPENILLETKNKEDMIIKIIDFGLSTHFEYSKKMKDKIGTAYYIAPDVLHGTYDEKCDIWSCGVILYILLSGCPPFNGSNEYDILKKVETGKYTFDLPQFKKISDKAKDLIKKMLMYTSAVRISARDALEHEWIRLMTSKDNVNIDIPSLELSITNIKQFQSTQKLAQAALLYMGSKLTTIDETKELTKIFKKMDKNGDGQLDRNELIIGYKELLKLKGDDTTDLDNAAIEVEVDQILSSIDLDQNGYIEYSEFLTVAIDRKLLLSTERLEKAFKLFDKDGSGKISANELAQLFGLGDVSSDCWKTVLKEVDQNNDGEIDFKEFRDMLIKLCNY
For B1, the binding entry was “binds”.
